Values from PubChem BioAssay AID1259308 (NCATS, 2017)

Screen: 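Knock-downs that increase output of a recombinant reporter protein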 (primary screen)
System: human HEK293 embryonic kidney cells stably expressing firefly luciferase (HEK-CMV-Luc2-Hygro)
Reagent: single siRNA against human genes, 0.8 pmol siRNA per well
Time to read-out: 72 h
Detection: 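Reporter luminescence and viable-cell signal on separate replicate plates, given as percent of non-targeting control and median/MAD z-scores, plus per-cell luciferase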
Reading the numbers: total luciferase, z-score and total luciferase, % of control: higher = more reporter protein produced; luciferase per cell, z-score: higher = more reporter output per viable cell; viable cells, % of control: higher = more viable cells
Active means: 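An siRNA counts as active if its total luciferase robust z-score exceeds 3; genes with two or more such siRNAs out of three were retested with fresh siRNAs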
Calls: active = raised luciferase; inactive = no rise
Shown is a random part of about 59,000 reagents tested. About 1,510 of all reagents (2.6%) count as active. 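Calls use total luciferase alone and ignore viability, so some active siRNAs may act by altering cell number.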 Unmarked entries are inactive. Reagents against one gene are numbered here. No sequences are given here.

gene knocked down | reagent | total luciferase, z-score | total luciferase, % of control | luciferase per cell, z-score | viable cells, % of control
FCAMR (Fc alpha and mu receptor) | 1 | 1.43 | 110 | 1 | 94.7
FCAMR (Fc alpha and mu receptor) | 2 | 2.07 | 123 | 2.1 | 79.1
FCAMR (Fc alpha and mu receptor) | 3 | -0.237 | 77.2 | -0.735 | 105
GPX3 (glutathione peroxidase 3) | 1 | 1.52 | 112 | 1.03 | 95.5
GPX3 (glutathione peroxidase 3) | 2 | 0.361 | 89.1 | -0.434 | 112
GPX3 (glutathione peroxidase 3) | 3 | 4.76 (active) | 177 | 2.89 | 92.3
MMP17 (matrix metallopeptidase 17) | 1 | -0.277 | 76.4 | 0.105 | 83
MMP17 (matrix metallopeptidase 17) | 2 | -0.731 | 67.3 | -0.781 | 92.4
MMP17 (matrix metallopeptidase 17) | 3 | 1.02 | 102 | 0.644 | 96.3
TIMM23B (translocase of inner mitochondrial membrane 23 homolog B) | 1 | -0.621 | 69.5 | 0.445 | 69.1
TIMM23B (translocase of inner mitochondrial membrane 23 homolog B) | 2 | -0.499 | 72 | 0.337 | 73.6
TIMM23B (translocase of inner mitochondrial membrane 23 homolog B) | 3 | -0.173 | 78.5 | -0.13 | 90.7
TIMM23B (translocase of inner mitochondrial membrane 23 homolog B) | 4 | -0.162 | 78.7 | 0.0208 | 87.4
TIMM23B (translocase of inner mitochondrial membrane 23 homolog B) | 5 | 2.94 | 140 | 1.99 | 93
TIMM23B (translocase of inner mitochondrial membrane 23 homolog B) | 6 | -0.0945 | 80 | -0.461 | 101
CNTRL (centriolin) | 1 | 0.235 | 86.6 | 0.508 | 84.6
CNTRL (centriolin) | 2 | 3.3 (active) | 148 | 1.94 | 98.9
CNTRL (centriolin) | 3 | 0.546 | 92.7 | 0.474 | 91.5
CFAP141 (cilia and flagella associated protein 141) | 1 | -1.74 | 47.3 | -1.85 | 85.9
CFAP141 (cilia and flagella associated protein 141) | 2 | -0.618 | 69.6 | -0.2 | 82
CFAP141 (cilia and flagella associated protein 141) | 3 | -0.559 | 70.8 | -0.0379 | 79.9
FEM1B (fem-1 homolog B) | 1 | 0.168 | 85.2 | -0.104 | 97.9
FEM1B (fem-1 homolog B) | 2 | 0.435 | 90.5 | 0.109 | 98.3
FEM1B (fem-1 homolog B) | 3 | -0.342 | 75.1 | -0.493 | 95.5
LTBP3 (latent transforming growth factor beta binding protein 3) | 1 | -0.204 | 77.8 | 0.559 | 75.1
LTBP3 (latent transforming growth factor beta binding protein 3) | 2 | 0.0389 | 82.7 | -0.0755 | 94.2
LTBP3 (latent transforming growth factor beta binding protein 3) | 3 | -0.35 | 74.9 | -0.333 | 91.4
ARPIN (actin related protein 2/3 complex inhibitor) | 1 | 2.64 | 134 | 2.14 | 85.5
ARPIN (actin related protein 2/3 complex inhibitor) | 2 | 1.15 | 105 | 1.08 | 88.2
ARPIN (actin related protein 2/3 complex inhibitor) | 3 | 0.406 | 90 | -0.384 | 111
UPP2 (uridine phosphorylase 2) | 1 | -0.706 | 67.8 | -0.892 | 95.9
UPP2 (uridine phosphorylase 2) | 2 | -0.306 | 75.8 | 0.437 | 75.5
UPP2 (uridine phosphorylase 2) | 3 | -0.85 | 65 | -0.959 | 93.5
PKHD1L1 (PKHD1 like 1) | 1 | -0.753 | 66.9 | -0.83 | 93
PKHD1L1 (PKHD1 like 1) | 2 | -0.104 | 79.8 | -0.461 | 101
PKHD1L1 (PKHD1 like 1) | 3 | -0.992 | 62.2 | -1.34 | 98.8
ARL5B (ARF like GTPase 5B) | 1 | -0.876 | 64.5 | -1.35 | 103
ARL5B (ARF like GTPase 5B) | 2 | 3.09 (active) | 143 | 3.02 | 72.3
ARL5B (ARF like GTPase 5B) | 3 | -0.365 | 74.6 | -0.983 | 108
COL4A6 (collagen type IV alpha 6 chain) | 1 | -0.928 | 63.4 | -0.233 | 75.4
COL4A6 (collagen type IV alpha 6 chain) | 2 | -0.0447 | 81 | 0.135 | 87.3
COL4A6 (collagen type IV alpha 6 chain) | 3 | -0.582 | 70.3 | -0.588 | 91.7
IGIP (IgA inducing protein) | 1 | 0.842 | 98.6 | 0.468 | 97.4
IGIP (IgA inducing protein) | 2 | 0.759 | 97 | 1.27 | 77.7
IGIP (IgA inducing protein) | 3 | -0.72 | 67.6 | -0.87 | 94.9
SRMS | 1 | 0.25 | 86.9 | 0.904 | 76.5
SRMS | 2 | 3.07 (active) | 143 | 1.91 | 96.7
SRMS | 3 | -0.472 | 72.5 | -0.824 | 101
COL9A3 (collagen type IX alpha 3 chain) | 1 | 1.95 | 121 | 2.32 | 73.2
COL9A3 (collagen type IX alpha 3 chain) | 2 | -0.55 | 70.9 | -0.395 | 88
COL9A3 (collagen type IX alpha 3 chain) | 3 | -0.615 | 69.7 | -0.519 | 89.2
DVL1 (dishevelled segment polarity protein 1) | 1 | 0.0521 | 82.9 | -0.531 | 107
DVL1 (dishevelled segment polarity protein 1) | 2 | 0.649 | 94.8 | -0.103 | 109
DVL1 (dishevelled segment polarity protein 1) | 3 | 0.326 | 88.4 | -0.111 | 102
GCNA (germ cell nuclear acidic peptidase) | 1 | 2.08 | 123 | 1.92 | 83.2
GCNA (germ cell nuclear acidic peptidase) | 2 | 0.821 | 98.2 | 1 | 84.3
GCNA (germ cell nuclear acidic peptidase) | 3 | 0.78 | 97.4 | 1.25 | 78.3

Called active (from the list above):
gene knocked down | reagent | total luciferase, z-score | total luciferase, % of control | luciferase per cell, z-score | viable cells, % of control
GPX3 (glutathione peroxidase 3) | 3 | 4.76 (active) | 177 | 2.89 | 92.3
CNTRL (centriolin) | 2 | 3.3 (active) | 148 | 1.94 | 98.9
ARL5B (ARF like GTPase 5B) | 2 | 3.09 (active) | 143 | 3.02 | 72.3
SRMS | 2 | 3.07 (active) | 143 | 1.91 | 96.7
